Measurements taken from doi:10.1101/2021.07.26.453911.
Positions count from the first letter of the chain named. Read-outs that look alike come from different tables or passages of the source. Results are given in words; binding and its absence hold for the method and conditions named. Binding seen in cells or lysates may run through a third protein. Some binding calls cover weakened binding; strength is not graded here. Tags and fused reporters may be left off the sequences shown.

By UniProt entry, the sequences of proteins in these tests, tags left out. Where a name states a change or a piece, a line headed by the entry shows the natural chain unless it says otherwise.
UniProt P42588, whole entry, stated change not applied: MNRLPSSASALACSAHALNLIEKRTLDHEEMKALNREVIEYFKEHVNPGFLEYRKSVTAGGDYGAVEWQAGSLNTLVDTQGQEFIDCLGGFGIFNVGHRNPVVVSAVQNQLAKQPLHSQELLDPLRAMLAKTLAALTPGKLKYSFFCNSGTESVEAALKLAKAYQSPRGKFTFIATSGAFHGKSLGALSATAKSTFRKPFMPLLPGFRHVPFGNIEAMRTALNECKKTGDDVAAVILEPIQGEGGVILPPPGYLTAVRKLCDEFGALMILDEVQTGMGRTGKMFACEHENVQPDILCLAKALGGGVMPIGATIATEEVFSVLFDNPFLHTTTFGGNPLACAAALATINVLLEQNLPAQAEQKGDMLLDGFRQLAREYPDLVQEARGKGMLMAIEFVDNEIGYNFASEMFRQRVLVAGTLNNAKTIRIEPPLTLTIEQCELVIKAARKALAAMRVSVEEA

B1: LT2-AldB (AldB with Leu attached by LFTR to Thr2), recovered from ΔclpA cells (protein, UniProt P37685 2-512)
chain: LTNNPPSAQIKPGEYGFPLKLKARYDNFIGGEWVAPADGEYYQNLTPVTGQLLCEVASSGKRDIDLALDAAHKVKDKWAHTSVQDRAAILFKIADRMEQNLELLATAETWDNGKPIRETSAADVPLAIDHFRYFASCIRAQEGGISEVDSETVAYHFHEPLGVVGQIIPWNFPLLMASWKMAPALAAGNCVVLKPARLTPLSVLLLMEIVGDLLPPGVVNVVNGAGGVIGEYLATSKRIAKVAFTGSTEVGQQIMQYATQNIIPVTLELGGKSPNIFFADVMDEEDAFFDKALEGFALFAFNQGEVCTCPSRALVQESIYERFMERAIRRVESIRSGNPLDSVTQMGAQVSHGQLETILNYIDIGKKEGADVLTGGRRKLLEGELKDGYYLEPTILFGQNNMRVFQEEIFGPVLAVTTFKTMEEALELANDTQYGLGAGVWSRNGNLAYKMGRGIQAGRVWTNCYHAYPAHAAFGGYKQSGIGRETHKMMLEHYQQTKCLLVSYSDKPLGLF
B2: LK16-AccD (processed AccD with Leu attached by LFTR to Lys16), recovered from ΔclpA cells (protein, UniProt P0A9Q5 16-304)
chain: LKASIPEGVWTKCDSCGQVLYRAELERNLEVCPKCDHHMRMTARNRLHSLLDEGSLVELGSELEPKDVLKFRDSKKYKDRLASAQKETGEKDALVVMKGTLYGMPVVAAAFEFAFMGGSMGSVVGARFVRAVEQALEDNCPLICFSASGGARMQEALMSLMQMAKTSAALAKMQERGLPYISVLTDPTMGGVSASFAMLGDLNIAEPKALIGFAGPRVIEQTVREKLPPGFQRSEFLIEKGAIDMIVRRPEMRLKLASILAKLMNLPAPNPEAPREGVVVPPVPDQEPEA
B3: AldB of Δaat cells (not modified by LFTR) (protein, UniProt P37685 1-512)
chain: B1 chain with L1M
B4: AccD of Δaat cells (not modified by LFTR) (protein, UniProt P0A9Q5 1-304)
chain: MSWIERIKSNITPTRKASIPEGVWTKCDSCGQVLYRAELERNLEVCPKCDHHMRMTARNRLHSLLDEGSLVELGSELEPKDVLKFRDSKKYKDRLASAQKETGEKDALVVMKGTLYGMPVVAAAFEFAFMGGSMGSVVGARFVRAVEQALEDNCPLICFSASGGARMQEALMSLMQMAKTSAALAKMQERGLPYISVLTDPTMGGVSASFAMLGDLNIAEPKALIGFAGPRVIEQTVREKLPPGFQRSEFLIEKGAIDMIVRRPEMRLKLASILAKLMNLPAPNPEAPREGVVVPPVPDQEPEA
B5: SufD of Δaat cells (not modified by LFTR) (protein, UniProt P77689 1-423)
chain: MAGLPNSSNALQQWHHLFEAEGTKRSPQAQQHLQQLLRTGLPTRKHENWKYTPLEGLINSQFVSIAGEISPQQRDALALTLDSVRLVFVDGRYVPALSDATEGSGYEVSINDDRQGLPDAIQAEVFLHLTESLAQSVTHIAVKRGQRPAKPLLLMHITQGVAGEEVNTAHYRHHLDLAEGAEATVIEHFVSLNDARHFTGARFTINVAANAHLQHIKLAFENPLSHHFAHNDLLLAEDATAFSHSFLLGGAVLRHNTSTQLNGENSTLRINSLAMPVKNEVCDTRTWLEHNKGFCNSRQLHKTIVSDKGRAVFNGLINVAQHAIKTDGQMTNNNLLMGKLAEVDTKPQLEIYADDVKCSHGATVGRIDDEQIFYLRSRGINQQDAQQMIIYAFAAELTEALRDEGLKQQVLARIGQRLPGGAR

How the values were obtained:
[1] = target: T1, ClpS (wild type), His6-ClpS or His10-ClpS (E. coli) (UniProt P0A8Q6); assay: pull-down
T1 sequence: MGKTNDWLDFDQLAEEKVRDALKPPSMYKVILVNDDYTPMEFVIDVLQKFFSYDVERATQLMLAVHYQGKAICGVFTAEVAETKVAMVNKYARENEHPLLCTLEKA

[2] = target: T1, ClpS (wild type), His6-ClpS or His10-ClpS (E. coli); assay: pull-down; remark: listed apart in the source

Molecule	binding [1]	binding [2]
PATase of Δaat cells (not modified by LFTR) (from UniProt P42588 1-459)	no binding	–
B1	–	binds
B2	–	binds
B3	–	no binding
B4	–	no binding
B5	–	no binding
